Results reported in PubChem BioAssay AID587 (National Center for Advancing Translational Sciences (NCATS), 2007).
Hit rate of the full screen: of about 59,000 compounds, about 35 (0.06%) were called active. Inconclusive means that the source gave no clear call. Such entries were picked first, then a sample of the others. Rule as the data show it: active = max dye-equivalent concentration above about 10 nM; inconclusive = between about 1.1 nM and that limit; inactive = weaker than that.

Experiment: qHTS Assay for Spectroscopic Profiling in Texas Red Spectral Region
Conditions: Compound fluorescence, Texas Red channel, 547/618 nm; active compounds read high
Procedure, shortened: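 Texas Red-region profiling: compounds in 100 mM Tris pH 8.0 were read at 547/618 nm after 15 min at room temperature. Intensities were normalized against a six-point Texas Red standard series to give dye-equivalent concentration.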

SMILES | max dye-equivalent concentration
Cc1ccc(CCNC(=O)NC(C)(C)C)cc1 | inconclusive: 1.2 nM
COc1ccccc1N(C(=O)CNS(=O)(=O)c1ccccc1)C(C(=O)NCc1ccco1)C(C)C (stereo not drawn) | inconclusive: 1.1 nM
COc1ccc(NC(=O)N2CCC3(CC2)CCN(C(=O)c2ccncc2)CC3)cc1 | inactive
CCOC(=O)c1cccc(NC(=O)c2cnccn2)c1 | inconclusive: 1.7 nM
CCOC(=O)CSc1nnc(CNc2ccc(Cl)cc2)n1-c1ccccc1 | inconclusive: 1.2 nM
CC(=O)N1CCc2cc(S(=O)(=O)NCCC(=O)Nc3ccc4c(c3)OCCO4)ccc21 | inconclusive: 1.4 nM
COc1ccc(CCN(C)CCC[C@@](C#N)(c2cc(OC)c(OC)c(OC)c2)C(C)C)cc1OC | inactive
O=c1cc(CN2CCN(CCO)CC2)c2cc3c(cc2o1)CCC3 | inconclusive: 1.1 nM
Cn1c(C(=O)Nc2ccc3c(c2)OCCO3)cc2sccc21 | inconclusive: 1.6 nM
O=c1[nH]c2cc3c(cc2cc1CN(Cc1cccs1)Cc1nnnn1Cc1ccco1)OCCO3 | inconclusive: 1.1 nM
CC(O)[C@H](NC(=O)C1(c2ccccc2)CCN(C(=O)OC(C)(C)C)CC1)C(=O)O (stereo partly drawn) | inconclusive: 1.1 nM
COc1cccc(-n2nnc3c(=O)n(Cc4ccccc4Cl)cnc32)c1 | inconclusive: 1.1 nM
CNC(=O)CC(C(=O)O)c1ccc(OCC(C)C)cc1 (stereo not drawn) | inconclusive: 1.7 nM
CN1C2C=C3C(C#N)=C(N)C(C#N)(C#N)[C@@H](c4ccsc4)[C@@H]3C1CC2 (stereo partly drawn) | inconclusive: 1.2 nM
C=CCOC(=O)C1=C(C)N=C2SCCC(=O)N2C1c1cccs1 (stereo not drawn) | inconclusive: 1.1 nM
CC1(C)[C@@H]2CC[C@@](C)(C2)[C@H]1OC(=O)c1ccccc1C(=O)O | inactive
O=C(NC1CCS(=O)(=O)C1)c1ccc(-c2ccc(Br)cc2)o1 (stereo not drawn) | inconclusive: 1.6 nM
COc1ccccc1Cn1c(=S)[nH]c2cc(C(=O)NCCN3CCOCC3)ccc2c1=O | inconclusive: 1.1 nM
CCC(=O)N(CCO)Cc1cc2ccc(C)c(C)c2[nH]c1=O | inconclusive: 2 nM
O=C(CCN1C(=O)c2ccccc2S1(=O)=O)NCc1ccco1 | inconclusive: 1.3 nM
CC(C)(C)c1ccccc1OCC(=O)NCCC(=O)O | inconclusive: 1.2 nM
CCOC(=O)c1cc(NC(=O)c2cnccn2)cc(C(=O)OCC)c1 | inconclusive: 1.8 nM
CCc1nnc(NC(=O)CSc2nnc(-c3ccoc3C)n2-c2ccc(C)cc2)s1 | inconclusive: 1.1 nM
CC1CCN(CC(=O)NCc2ccccc2)CC1 | inconclusive: 1.7 nM
CS(=O)(=O)c1ncc(Cl)c(C(=O)Nc2ccc(N3CCOCC3)cc2)n1 | inconclusive: 2.1 nM
COc1ccc(S(=O)(=O)N(Cc2ccccc2)Cc2nc3ccccc3c(=O)[nH]2)cc1 | inconclusive: 1.8 nM
CCN(CC)C(=O)CSc1nc2ccccc2c(=O)n1OC | inconclusive: 1.5 nM

Laid out differently: entries from further up

| SMILES | max dye-equivalent concentration |
| --- | --- |
| C=CCOC(=O)C1=C(C)N=C2SCCC(=O)N2C1c1cccs1 (stereo not drawn) | inconclusive: 1.1 nM |
| CC1(C)[C@@H]2CC[C@@](C)(C2)[C@H]1OC(=O)c1ccccc1C(=O)O | inactive |

Carrying on.

SMILES | max dye-equivalent concentration
Cc1ccc(-c2cc(C(=O)Nc3cnn(C45CC6CC(CC(C6)C4)C5)c3)no2)cc1 | inconclusive: 2.4 nM
CO/N=C(\C(=O)N[C@@H]1C(=O)N2C(C(=O)[O-])=C(C[N+]3(C)CCCC3)CS[C@@H]12)c1csc(N)n1 | inactive
CC1CCCCN1S(=O)(=O)c1ccc(NC(=O)CSc2nnnn2C)cc1 (stereo not drawn) | inconclusive: 2 nM
O=S(=O)(c1ccc2c(c1)OCCO2)N(Cc1ccc(F)cc1)Cc1nnc(-c2cccs2)o1 | inconclusive: 1.2 nM
CCOc1ccc(C(=O)Nc2ccc(S(=O)(=O)N3CCOCC3)cc2)cc1OCC | inconclusive: 1.9 nM
O=C(CC1NC2CCCCC2NC1=O)Nc1cccc(C(F)(F)F)c1 (stereo not drawn) | inconclusive: 1.7 nM
CCCNC(=O)C1CCN(S(=O)(=O)c2ccc(Br)cc2)CC1 | inconclusive: 1.2 nM
CCOc1ccc2[nH]c(=O)c(CN(Cc3ccco3)C(CC)c3nnnn3Cc3ccccc3)cc2c1 (stereo not drawn) | inconclusive: 2 nM
COc1ccc(O)c(C(=O)c2cc(C#N)c(=O)n(CCN3CCOCC3)c2)c1 | inactive
COc1ccc(C(c2nnnn2C2CCCCC2)N2CCN(c3ccccc3F)CC2)cc1 (stereo not drawn) | inconclusive: 1.3 nM
C[C@@]12CC[C@H]3[C@H](CC=C4C[C@@H](O)CC[C@@]43C)[C@@H]1CC[C@@H]2N(CCO)CCO | inactive
O=C(Nc1ccccc1C(=O)O)c1cccc(NC(=O)c2ccc(Br)o2)c1 | inconclusive: 1.4 nM
COc1ccc(CCNC(=O)CSc2nc(C)nc3c2oc2ccccc23)cc1OC | inconclusive: 1.2 nM
O=C(c1cccc(S(=O)(=O)N2CCCCC2)c1)N1CCCCC1 | inconclusive: 1.1 nM
CCN(CC)CCCN(Cc1cc2cc3c(cc2[nH]c1=O)OCO3)C(=O)Nc1ccccc1OC | inconclusive: 1.4 nM
CCOC(=O)N1CCN(S(=O)(=O)c2cc(Br)cc3c2N(C(=O)CC)CC3)CC1 | inconclusive: 1.1 nM
COc1ccc(CSc2nnc(C)n2N)cc1 | inactive
Cc1ccc(C)n1Cc1ccc(C(=O)O)cc1 | inactive
CCOC(=O)c1[nH]c(C)c(C(=O)Nc2ccccc2F)c1C | inconclusive: 1.1 nM
c1ccc(CSc2nnc(-c3cccs3)n2Cc2ccco2)cc1 | inconclusive: 1.1 nM
O=C(O)Cc1ccc(-c2ccccc2)cc1 | inconclusive: 1.6 nM
Clc1ccccc1-c1ccc2ncnc(NC3CCNCC3)c2c1 | inconclusive: 1.1 nM
CCN=c1scc(-c2ccc3c(c2)NC(=O)CO3)n1N=C1CCCC1 | inconclusive: 1.5 nM
O=C(OCC(=O)N1CCc2ccccc21)c1ccc[n+]([O-])c1 | inconclusive: 1.6 nM
O=C1CCC(=O)N1OCCCCOc1ccccc1 | inconclusive: 1.5 nM
COC(=O)C1ON2OC(C(=O)OC)C(C(=O)OC)C2C1CC(C)=O (stereo not drawn) | inconclusive: 1.2 nM
